Measurements reported in PubChem BioAssay AID686943 (Drosophila RNAi Screening Center, 2013).

Screen: 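Knockdowns that increase or decrease active ERK after insulin receptor stimulation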 (primary screen)
Cell system: Drosophila S2R+ haemocyte-like cells expressing YFP-tagged ERK (Rolled)
Knock-down reagent: long dsRNA against Drosophila genes
Conditions: insulin stimulation versus unstimulated cells; dose and duration not given
Measured: 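Per-plate z-scores of phospho-ERK immunostaining normalised to YFP-tagged ERK, measured with and without insulin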
Scale: replicate 1, z-score of dpERK with insulin and replicate 2, z-score of dpERK with insulin: higher = more active ERK per ERK-YFP after insulin; replicate 1, z-score of dpERK under basal conditions: higher = more basal active ERK per ERK-YFP; replicate 1, z-score of ERK-YFP with insulin: higher = more YFP-tagged ERK signal
In all, the deposit lists about 23,000 reagents; below is a random part of those that have a named target and a result. 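Extra replicates exist only for a retested subset of genes; insulin dose and duration not given; both raised and lowered dpERK matter.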 Names joined by + are all predicted targets of the reagent. Reagent sequences are not shown. Not stated in the record: the amount of reagent, the time to read-out.

gene | DRSC id | replicate 1, z-score of dpERK with insulin | replicate 2, z-score of dpERK with insulin | replicate 1, z-score of dpERK under basal conditions | replicate 1, z-score of ERK-YFP with insulin
CG9257 (GeneID 35375) | DRSC03173 | -0.2 | 0.09 | -0.24 | 0.51
CG13869 + CG11099 | DRSC06428 | 0.59 | 0.01 | 1.44 | -0.59
CG31467 (GeneID 318751) | DRSC16048 | 0.43 | 0.16 | 0.12 | -0.08
Hrs (GeneID 33458) | DRSC00549 | -0.02 | -0.4 | 0.12 | 0.09
lmd (GeneID 42717) | DRSC15618 | 0.82 | -0.1 | 0.06 | -0.63
ArfGAP1 (GeneID 39417) | DRSC11173 | 1.13 | 1.48 | 2.05 | -1.95
Usp20-33 (GeneID 36580) | DRSC07196 | 0.06 | -0.63 | -0.33 | 0.3
Atg10 + CG12822 | DRSC06796 | -0.5 | -0.09 | -1.71 | -0.16
Grip91 (GeneID 48481) | DRSC20249 | -0.01 | 1.5 | 2.55 | -0.28
beat-Vc (GeneID 41575) | DRSC12927 | -0.69 | 0.61 | -0.91 | 0.6
beat-Vc (GeneID 41575) | DRSC14849 | -0.77 | -0.02 | -0.02 | -0.11
SmydA-4 (GeneID 32034) | DRSC19390 | -0.03 | -0.25 | 0.54 | 0.43
SmydA-4 (GeneID 32034) | DRSC21866 | 0.32 | -0.06 | -1.14 | 0.12
CG18635 (GeneID 37031) | DRSC06780 | 0.52 | 0.14 | 0.69 | -0.11
Rbm13 (GeneID 31818) | DRSC17749 | 1.38 | 0.18 | -1.28 | -0.6
schuy (GeneID 40184) | DRSC10284 | -0.86 | -0.59 | -0.54 | -0.03
CG13364 (GeneID 50364) | DRSC17898 | 0.32 | 0.58 | 0.34 | 0.62
CG13364 (GeneID 50364) | DRSC21263 | -2.38 | -0.22 | -0.95 | 0.93
wat (GeneID 43420) | DRSC14854 | -0.63 | -0.02 | 0.49 | 0.9
CG31538 (GeneID 318790) | DRSC12059 | 0.02 | 0.46 | -0.3 | 0.14
CG4597 (GeneID 38604) | DRSC10432 | -0.19 | 0.35 | – | -0.03
Art2 (GeneID 33631) | DRSC00627 | -1.01 | -0.46 | 1.84 | -0.54
CG13223 (GeneID 36190) | DRSC06344 | 0.38 | 0.09 | 0.59 | 0.12
bsd (GeneID 36302) | DRSC05953 | -1.15 | -2.61 | -0.85 | -2.83
EndoA (GeneID 42265) | DRSC14775 | -0.17 | 0 | 0.4 | -0.23
Gbp2 (GeneID 36937) | DRSC06069 | 0.34 | 0.89 | 1.72 | -1.06
CG9072 (GeneID 32443) | DRSC20147 | 0.28 | 0.19 | 0.24 | -0.65
CG13375 (GeneID 30976) | DRSC18621 | 0.1 | 0 | -0.34 | 0.32
Asap (GeneID 35783) | DRSC06493 | 0.52 | 1.01 | 0.17 | 0.28
Asap (GeneID 35783) | DRSC06830 | 0.43 | 0.94 | 0.83 | 0.27
CG42507 + Trl | DRSC09325 | -0.74 | -0.66 | -0.96 | 0.18
CG42507 + Trl | DRSC11308 | -3.99 | -5.15 | -3.97 | -3
CG32187 (GeneID 39980) | DRSC10521 | 0.44 | 0.16 | -1.03 | -0.43
Syt1 (GeneID 33473) | DRSC00156 | 1.17 | 0.48 | -1.87 | 0.26
Syt1 (GeneID 33473) | DRSC00157 | 1.37 | 1.12 | -0.05 | 0.01
Syt1 (GeneID 33473) | DRSC00158 | -0.01 | 0.27 | 0.46 | 0.08
Syt1 (GeneID 33473) | DRSC00840 | -0.57 | -0.3 | -0.28 | 1.33
Syt1 (GeneID 33473) | DRSC22077 | -1.53 | -0.01 | 0.09 | -1.11
Ype (GeneID 32295) | DRSC20301 | -0.61 | -0.94 | 0.01 | -0.02
mip130 (GeneID 31153) | DRSC18575 | 0 | -1.41 | 4 | 0
Atox1 (GeneID 326216) | DRSC22416 | -0.28 | -0.68 | 0.08 | 0.86
CSN7 (GeneID 35816) | DRSC06807 | -0.06 | -0.29 | -0.45 | -1.1
CSN7 (GeneID 35816) | DRSC06808 | -0.45 | -2.57 | -0.15 | -0.55
Marf1 (GeneID 49895) | DRSC03747 | 0.11 | 0.88 | 0.5 | 0.8
Marf1 (GeneID 49895) | DRSC03774 | -0.2 | -0.88 | -0.41 | -0.99
CG42326 (GeneID 35838) | DRSC06483 | 1.02 | 0.36 | 0.29 | 0.35
CG42326 (GeneID 35838) | DRSC06484 | -1.43 | -0.29 | -0.57 | 1.29
LSm3 (GeneID 42842) | DRSC15920 | 0.93 | -0.02 | -0.28 | -0.09
CG34174 (GeneID 5740699) | DRSC00101 | 0.47 | 0.91 | -0.98 | 0.06
CG32413 (GeneID 318018) | DRSC21591 | 0.14 | 0.92 | -0.79 | -0.92
dsh (GeneID 32078) | DRSC19803 | 0.99 | 0.38 | 1.59 | -0.17
Grasp65 (GeneID 40177) | DRSC10917 | 0.56 | 0.93 | 0.93 | -0.34
bys (GeneID 31701) | DRSC18748 | -0.01 | -0.08 | -0.08 | -0.54
Trm7-34 (GeneID 42508) | DRSC16171 | 0.41 | -0.28 | -1.56 | -0.25
CG14014 (GeneID 33784) | DRSC02345 | -0.2 | 0.23 | 0.94 | -0.59
Prp39 (GeneID 43399) | DRSC15133 | -0.79 | 2.38 | -0.27 | 0.66
CG11444 (GeneID 31388) | DRSC17784 | 0.72 | 1.46 | -0.1 | 0.71

An excerpt from the list above, for reference:
gene | DRSC id | replicate 1, z-score of dpERK with insulin | replicate 2, z-score of dpERK with insulin | replicate 1, z-score of dpERK under basal conditions | replicate 1, z-score of ERK-YFP with insulin
CG13364 (GeneID 50364) | DRSC17898 | 0.32 | 0.58 | 0.34 | 0.62
CG13364 (GeneID 50364) | DRSC21263 | -2.38 | -0.22 | -0.95 | 0.93
wat (GeneID 43420) | DRSC14854 | -0.63 | -0.02 | 0.49 | 0.9
CG31538 (GeneID 318790) | DRSC12059 | 0.02 | 0.46 | -0.3 | 0.14
